This is one part of the list.
Compound: CC1Cc2ccccc2N1C(=O)C1CCCN(C1)C(=O)CCl (mixture of isomers) [TRIM25 ligand 11 (diastereomer mixture)]
Experiment: probe-labelled cysteine peptide fold change vs DMSO (competition) (log2 fold change); higher = less target engagement (more negative = stronger competition)
Details: THP-1, incubation time: 4 h
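Note: competitive chemoproteomic profiling in live THP-1 cells with an iodoacetamide desthiobiotin (IA-DTB) probe, comparing probe-labelled peptide intensities in compound-treated cells against DMSO-treated controls.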

Protein sequences, listed by entry. Tags and fused reporters are not part of them. Lines headed by an entry give the natural chain unless they say otherwise; changes in a name come on top.
UniProt P17017: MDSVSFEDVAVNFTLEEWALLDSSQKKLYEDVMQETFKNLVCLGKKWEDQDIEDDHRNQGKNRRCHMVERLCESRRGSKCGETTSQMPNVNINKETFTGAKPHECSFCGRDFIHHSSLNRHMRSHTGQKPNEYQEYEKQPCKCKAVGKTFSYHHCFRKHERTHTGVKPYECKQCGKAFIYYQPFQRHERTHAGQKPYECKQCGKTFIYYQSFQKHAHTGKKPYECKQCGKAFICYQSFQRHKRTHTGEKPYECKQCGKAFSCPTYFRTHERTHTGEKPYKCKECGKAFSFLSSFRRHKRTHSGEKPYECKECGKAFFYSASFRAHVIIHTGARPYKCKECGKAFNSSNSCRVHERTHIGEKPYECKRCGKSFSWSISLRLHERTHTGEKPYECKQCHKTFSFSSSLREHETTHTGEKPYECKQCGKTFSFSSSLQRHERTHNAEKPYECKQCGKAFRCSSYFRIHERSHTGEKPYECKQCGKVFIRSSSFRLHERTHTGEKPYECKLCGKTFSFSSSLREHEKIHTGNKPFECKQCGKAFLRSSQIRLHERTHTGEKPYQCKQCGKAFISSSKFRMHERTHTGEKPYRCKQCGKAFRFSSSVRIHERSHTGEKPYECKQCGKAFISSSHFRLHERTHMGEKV
UniProt Q14966: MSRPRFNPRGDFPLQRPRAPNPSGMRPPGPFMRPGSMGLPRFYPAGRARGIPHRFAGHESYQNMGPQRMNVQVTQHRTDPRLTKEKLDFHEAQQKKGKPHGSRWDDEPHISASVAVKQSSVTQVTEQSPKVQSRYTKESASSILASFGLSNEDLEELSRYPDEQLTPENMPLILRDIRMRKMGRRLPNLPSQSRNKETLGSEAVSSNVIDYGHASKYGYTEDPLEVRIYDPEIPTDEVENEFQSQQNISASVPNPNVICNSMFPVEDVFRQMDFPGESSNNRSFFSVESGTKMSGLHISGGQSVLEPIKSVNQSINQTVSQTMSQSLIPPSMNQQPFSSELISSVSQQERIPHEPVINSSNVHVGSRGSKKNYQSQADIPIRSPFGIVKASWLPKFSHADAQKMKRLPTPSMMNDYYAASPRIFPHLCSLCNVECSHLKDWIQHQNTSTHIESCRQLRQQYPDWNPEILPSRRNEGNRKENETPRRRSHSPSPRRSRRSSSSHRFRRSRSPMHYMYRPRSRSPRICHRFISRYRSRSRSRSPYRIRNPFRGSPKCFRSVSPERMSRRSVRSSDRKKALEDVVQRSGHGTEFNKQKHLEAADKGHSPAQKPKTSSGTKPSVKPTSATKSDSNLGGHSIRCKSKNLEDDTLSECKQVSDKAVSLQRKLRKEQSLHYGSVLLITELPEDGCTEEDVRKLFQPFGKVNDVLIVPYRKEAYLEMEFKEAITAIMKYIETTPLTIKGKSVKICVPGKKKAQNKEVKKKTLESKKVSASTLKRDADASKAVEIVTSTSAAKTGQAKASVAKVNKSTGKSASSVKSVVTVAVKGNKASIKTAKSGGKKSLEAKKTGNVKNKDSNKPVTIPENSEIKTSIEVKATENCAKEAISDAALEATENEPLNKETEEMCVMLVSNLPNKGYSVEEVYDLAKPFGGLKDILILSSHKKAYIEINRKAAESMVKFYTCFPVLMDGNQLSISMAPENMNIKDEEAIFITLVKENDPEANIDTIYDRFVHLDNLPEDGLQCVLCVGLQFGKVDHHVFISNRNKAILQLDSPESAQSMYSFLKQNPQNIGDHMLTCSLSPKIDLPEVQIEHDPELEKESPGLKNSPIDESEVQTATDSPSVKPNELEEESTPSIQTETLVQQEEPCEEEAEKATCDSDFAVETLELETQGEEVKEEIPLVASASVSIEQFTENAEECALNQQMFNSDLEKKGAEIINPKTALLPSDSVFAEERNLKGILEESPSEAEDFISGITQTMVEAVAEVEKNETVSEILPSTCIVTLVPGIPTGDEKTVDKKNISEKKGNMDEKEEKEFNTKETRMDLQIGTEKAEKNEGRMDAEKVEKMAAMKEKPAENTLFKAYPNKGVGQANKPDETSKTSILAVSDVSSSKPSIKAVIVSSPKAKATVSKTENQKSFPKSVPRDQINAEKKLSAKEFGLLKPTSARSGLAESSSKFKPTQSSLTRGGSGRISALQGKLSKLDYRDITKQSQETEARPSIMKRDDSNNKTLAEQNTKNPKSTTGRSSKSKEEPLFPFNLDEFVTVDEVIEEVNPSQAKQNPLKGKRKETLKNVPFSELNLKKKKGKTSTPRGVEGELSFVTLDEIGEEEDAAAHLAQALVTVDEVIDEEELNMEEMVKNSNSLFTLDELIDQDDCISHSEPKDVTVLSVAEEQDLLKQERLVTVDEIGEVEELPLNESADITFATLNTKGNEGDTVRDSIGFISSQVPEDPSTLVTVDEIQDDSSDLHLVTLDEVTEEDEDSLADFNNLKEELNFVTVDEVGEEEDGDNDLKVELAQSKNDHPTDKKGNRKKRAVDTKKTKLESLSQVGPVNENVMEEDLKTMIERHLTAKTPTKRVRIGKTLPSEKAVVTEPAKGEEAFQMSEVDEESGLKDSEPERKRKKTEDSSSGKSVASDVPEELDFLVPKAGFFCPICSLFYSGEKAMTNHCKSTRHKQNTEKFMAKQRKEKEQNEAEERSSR
UniProt Q96JP5: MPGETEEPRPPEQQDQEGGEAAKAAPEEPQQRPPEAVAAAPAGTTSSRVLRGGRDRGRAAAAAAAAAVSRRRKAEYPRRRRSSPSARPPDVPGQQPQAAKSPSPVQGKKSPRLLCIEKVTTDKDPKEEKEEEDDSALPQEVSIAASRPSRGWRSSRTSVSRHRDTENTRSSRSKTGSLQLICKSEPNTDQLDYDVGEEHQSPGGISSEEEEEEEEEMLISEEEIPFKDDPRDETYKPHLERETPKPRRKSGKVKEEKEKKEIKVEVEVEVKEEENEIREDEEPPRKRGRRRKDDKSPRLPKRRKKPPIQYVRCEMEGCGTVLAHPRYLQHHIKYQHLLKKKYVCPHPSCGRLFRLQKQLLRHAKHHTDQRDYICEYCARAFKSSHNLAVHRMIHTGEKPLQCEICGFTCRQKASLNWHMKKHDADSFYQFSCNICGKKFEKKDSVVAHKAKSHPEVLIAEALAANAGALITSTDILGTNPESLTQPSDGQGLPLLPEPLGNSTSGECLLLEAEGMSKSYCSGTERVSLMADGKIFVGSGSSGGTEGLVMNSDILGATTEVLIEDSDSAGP
UniProt P52747: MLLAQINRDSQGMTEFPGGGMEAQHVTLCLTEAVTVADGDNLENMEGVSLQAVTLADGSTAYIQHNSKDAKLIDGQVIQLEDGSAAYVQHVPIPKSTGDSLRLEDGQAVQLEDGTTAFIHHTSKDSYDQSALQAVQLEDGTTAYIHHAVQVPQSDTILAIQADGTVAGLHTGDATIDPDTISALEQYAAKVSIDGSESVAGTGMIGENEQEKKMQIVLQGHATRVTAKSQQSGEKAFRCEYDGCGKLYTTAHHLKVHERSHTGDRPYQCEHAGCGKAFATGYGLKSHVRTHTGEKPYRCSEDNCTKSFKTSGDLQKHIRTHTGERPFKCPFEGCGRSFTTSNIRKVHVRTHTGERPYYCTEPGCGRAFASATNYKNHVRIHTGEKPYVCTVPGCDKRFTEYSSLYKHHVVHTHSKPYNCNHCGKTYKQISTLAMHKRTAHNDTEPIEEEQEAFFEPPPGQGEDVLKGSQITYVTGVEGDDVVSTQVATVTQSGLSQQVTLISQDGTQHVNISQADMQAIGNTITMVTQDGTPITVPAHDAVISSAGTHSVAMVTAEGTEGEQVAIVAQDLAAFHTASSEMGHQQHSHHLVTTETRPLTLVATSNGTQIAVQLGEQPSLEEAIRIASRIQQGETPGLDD
UniProt Q5VZL5: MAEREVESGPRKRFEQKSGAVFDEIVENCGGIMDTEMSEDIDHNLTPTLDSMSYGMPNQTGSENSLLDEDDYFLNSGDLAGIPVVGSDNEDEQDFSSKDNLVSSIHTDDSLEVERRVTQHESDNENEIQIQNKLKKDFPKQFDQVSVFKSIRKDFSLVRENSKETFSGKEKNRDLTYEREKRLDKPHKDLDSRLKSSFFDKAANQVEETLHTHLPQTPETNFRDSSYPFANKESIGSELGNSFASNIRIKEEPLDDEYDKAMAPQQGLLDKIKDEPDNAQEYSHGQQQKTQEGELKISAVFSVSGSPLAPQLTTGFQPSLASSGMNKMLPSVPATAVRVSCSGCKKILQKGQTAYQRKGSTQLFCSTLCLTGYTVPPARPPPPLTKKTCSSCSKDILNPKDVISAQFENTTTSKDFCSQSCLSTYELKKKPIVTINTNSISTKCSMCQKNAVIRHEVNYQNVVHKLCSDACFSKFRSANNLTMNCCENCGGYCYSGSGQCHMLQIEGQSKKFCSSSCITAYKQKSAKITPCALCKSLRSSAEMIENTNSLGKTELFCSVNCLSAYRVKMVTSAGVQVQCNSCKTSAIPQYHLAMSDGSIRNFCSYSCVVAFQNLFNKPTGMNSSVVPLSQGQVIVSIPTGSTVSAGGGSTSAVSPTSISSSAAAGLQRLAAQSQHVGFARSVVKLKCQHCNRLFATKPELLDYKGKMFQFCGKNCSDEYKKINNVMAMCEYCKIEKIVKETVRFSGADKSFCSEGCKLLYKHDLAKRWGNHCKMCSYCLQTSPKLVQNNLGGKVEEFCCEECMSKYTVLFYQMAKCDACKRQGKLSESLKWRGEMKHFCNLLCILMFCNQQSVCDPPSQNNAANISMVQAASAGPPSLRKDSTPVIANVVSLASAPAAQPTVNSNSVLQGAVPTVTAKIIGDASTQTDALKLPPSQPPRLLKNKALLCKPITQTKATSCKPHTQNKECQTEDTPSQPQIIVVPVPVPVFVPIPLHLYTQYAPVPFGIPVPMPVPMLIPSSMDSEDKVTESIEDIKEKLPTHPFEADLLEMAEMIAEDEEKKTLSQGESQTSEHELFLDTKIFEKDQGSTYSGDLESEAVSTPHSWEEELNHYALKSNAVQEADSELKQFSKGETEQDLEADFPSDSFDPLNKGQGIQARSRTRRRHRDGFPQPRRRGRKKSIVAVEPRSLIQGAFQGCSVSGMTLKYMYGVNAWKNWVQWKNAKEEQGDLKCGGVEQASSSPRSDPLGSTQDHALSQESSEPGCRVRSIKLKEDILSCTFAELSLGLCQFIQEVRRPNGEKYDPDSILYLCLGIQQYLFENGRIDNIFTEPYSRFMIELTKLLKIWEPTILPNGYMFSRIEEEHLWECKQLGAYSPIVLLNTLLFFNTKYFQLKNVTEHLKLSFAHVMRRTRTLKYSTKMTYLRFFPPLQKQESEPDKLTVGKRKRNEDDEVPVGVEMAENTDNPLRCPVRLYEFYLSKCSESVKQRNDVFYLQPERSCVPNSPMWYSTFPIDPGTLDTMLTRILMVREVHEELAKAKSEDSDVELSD
UniProt O76080: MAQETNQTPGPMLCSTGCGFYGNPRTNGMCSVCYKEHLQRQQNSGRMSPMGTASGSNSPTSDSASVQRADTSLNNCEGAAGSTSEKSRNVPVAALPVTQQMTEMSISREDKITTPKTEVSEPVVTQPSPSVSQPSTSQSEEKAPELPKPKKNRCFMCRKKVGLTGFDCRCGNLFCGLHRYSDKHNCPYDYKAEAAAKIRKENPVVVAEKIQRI
UniProt Q8NAF0: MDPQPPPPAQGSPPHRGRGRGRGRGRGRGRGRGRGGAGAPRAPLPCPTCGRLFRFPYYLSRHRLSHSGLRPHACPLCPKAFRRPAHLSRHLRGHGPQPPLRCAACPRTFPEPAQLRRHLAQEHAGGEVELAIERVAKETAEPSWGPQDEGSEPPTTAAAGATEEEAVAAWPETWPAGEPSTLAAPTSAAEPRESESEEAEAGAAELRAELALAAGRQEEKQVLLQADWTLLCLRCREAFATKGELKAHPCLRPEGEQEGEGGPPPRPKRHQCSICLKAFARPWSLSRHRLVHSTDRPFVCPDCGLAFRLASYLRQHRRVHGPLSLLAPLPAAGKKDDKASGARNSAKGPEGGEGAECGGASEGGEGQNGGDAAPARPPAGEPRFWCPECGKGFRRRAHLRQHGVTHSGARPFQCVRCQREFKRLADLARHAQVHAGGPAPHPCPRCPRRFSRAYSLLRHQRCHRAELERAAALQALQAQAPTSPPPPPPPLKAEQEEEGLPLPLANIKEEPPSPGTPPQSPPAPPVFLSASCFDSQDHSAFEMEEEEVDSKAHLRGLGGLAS
UniProt Q5T0B9: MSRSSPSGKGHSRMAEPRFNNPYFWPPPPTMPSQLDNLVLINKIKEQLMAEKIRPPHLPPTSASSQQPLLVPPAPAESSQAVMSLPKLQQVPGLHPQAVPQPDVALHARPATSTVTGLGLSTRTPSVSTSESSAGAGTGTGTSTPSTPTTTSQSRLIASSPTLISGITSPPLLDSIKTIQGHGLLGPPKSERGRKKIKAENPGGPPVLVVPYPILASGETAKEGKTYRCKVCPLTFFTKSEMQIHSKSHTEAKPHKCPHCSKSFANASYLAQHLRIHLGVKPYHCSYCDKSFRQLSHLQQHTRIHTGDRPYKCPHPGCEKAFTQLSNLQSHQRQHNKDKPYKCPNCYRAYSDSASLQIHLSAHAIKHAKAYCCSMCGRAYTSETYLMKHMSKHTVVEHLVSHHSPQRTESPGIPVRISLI

## ZNF14_P17017_42_NLVCLGK (UniProt P17017)
10 µM
  probe-labelled cysteine peptide fold change: -0.0998
50 µM
  probe-labelled cysteine peptide fold change: 0.0189

## ZNF638_Q14966_428_IFPHLCSLCNVECSHLK (UniProt Q14966)
10 µM
  probe-labelled cysteine peptide fold change: -0.0733
50 µM
  probe-labelled cysteine peptide fold change: 0.239

## ZNF670_Q9BS34_114_VFICHSALHR (UniProt Q9BS34)
10 µM
  probe-labelled cysteine peptide fold change: 0.0995
50 µM
  probe-labelled cysteine peptide fold change: 0.038

## ZFR_Q96KR1_391_CELCDVSCTGADAYAAHIR (UniProt Q96KR1)
10 µM
  probe-labelled cysteine peptide fold change: -0.000822
50 µM
  probe-labelled cysteine peptide fold change: 0.0195

## ZNF451_Q9Y4E5_959_DAADFAICMHAGR (UniProt Q9Y4E5)
10 µM
  probe-labelled cysteine peptide fold change: -0.0144
50 µM
  probe-labelled cysteine peptide fold change: -0.0466

## ZNF598_Q86UK7_119_QLLQHECPR (UniProt Q86UK7)
10 µM
  probe-labelled cysteine peptide fold change: 0.0152
50 µM
  probe-labelled cysteine peptide fold change: 0.0167

## ZFP91_Q96JP5_520_SYCSGTER (UniProt Q96JP5)
10 µM
  probe-labelled cysteine peptide fold change: -0.0136
50 µM
  probe-labelled cysteine peptide fold change: -0.24

## ZNF143_P52747_274_SHTGDRPYQCEHAGCGK (UniProt P52747)
10 µM
  probe-labelled cysteine peptide fold change: 0.0334
50 µM
  probe-labelled cysteine peptide fold change: 0.0995

## ZMYM4_Q5VZL5_1480_CSESVK (UniProt Q5VZL5)
10 µM
  probe-labelled cysteine peptide fold change: -0.0865
50 µM
  probe-labelled cysteine peptide fold change: -0.0253

## ZFAND5_O76080_170+175_CGNLFCGLHR (UniProt O76080)
10 µM
  probe-labelled cysteine peptide fold change: -0.0788
50 µM
  probe-labelled cysteine peptide fold change: 0.065

## ZNF579_Q8NAF0_443_HAQVHAGGPAPHPCPR (UniProt Q8NAF0)
10 µM
  probe-labelled cysteine peptide fold change: 0.238
50 µM
  probe-labelled cysteine peptide fold change: 0.156

## ZNF362_Q5T0B9_232_VCPLTFFTK (UniProt Q5T0B9)
10 µM
  probe-labelled cysteine peptide fold change: -0.264
50 µM
  probe-labelled cysteine peptide fold change: -0.0216

## ZMYND8_Q9ULU4_196_MKQPGTDAFQKPVPLEQHPDYAEYIFHPMDLCTLEK (UniProt Q9ULU4)
10 µM
  probe-labelled cysteine peptide fold change: -0.0551
50 µM
  probe-labelled cysteine peptide fold change: -0.248

## ZNF292_O60281_2454_DSDTCVSESNDNSR (UniProt O60281)
10 µM
  probe-labelled cysteine peptide fold change: -0.0986
50 µM
  probe-labelled cysteine peptide fold change: -0.103

From the supplement of paper PMC12067093, “Discovery and optimisation of a covalent ligand for TRIM25 and its application to targeted protein ubiquitination” (Chemical Science, 2025)
